As usually defined, the IC50 is the midpoint of a concentration-inhibition curve.

The target in assay [1] is T1, human aromatase (Homo sapiens, UniProt P11511).
T1 construct: The JEG-3 cell line, derived from a human placental choriocarcinoma, constitutively overexpresses human aromatase; endogenous in cells; host or cells: JEG-3 (human placental choriocarcinoma)
T1 sequence (P11511 1-503): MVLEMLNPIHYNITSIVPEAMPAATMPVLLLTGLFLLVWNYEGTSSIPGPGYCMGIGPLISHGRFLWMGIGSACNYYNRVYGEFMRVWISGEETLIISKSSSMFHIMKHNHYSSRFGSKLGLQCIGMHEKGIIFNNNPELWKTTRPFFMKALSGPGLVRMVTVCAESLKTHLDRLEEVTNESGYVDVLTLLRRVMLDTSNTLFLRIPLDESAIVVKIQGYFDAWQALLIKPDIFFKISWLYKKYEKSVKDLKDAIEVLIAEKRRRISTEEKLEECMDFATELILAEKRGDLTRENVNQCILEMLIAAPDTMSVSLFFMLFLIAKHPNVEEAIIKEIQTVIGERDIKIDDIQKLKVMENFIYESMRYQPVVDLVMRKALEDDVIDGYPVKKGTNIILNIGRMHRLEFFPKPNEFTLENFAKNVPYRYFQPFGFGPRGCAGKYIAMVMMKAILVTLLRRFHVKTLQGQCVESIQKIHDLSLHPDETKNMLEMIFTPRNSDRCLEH
As to the kind of experiment: Aromatase activity alone, tritiated water method in JEG-3 cells. Type of assay: cell-based. The note with it: footnote a: aromatase activity alone, nd: not detected, read-out: Aromatase activity IC50 (nM) ± S.E.M. The procedure: The JEG-3 cell line, derived from a human placental choriocarcinoma, constitutively overexpresses human aromatase and represents a relevant model for assaying putative aromatase inhibitors in vitro. Aromatase activity was determined by the tritiated water method. In brief, cells were first seeded into 96-well microplates in decomplemented fetal calf serum (dFCS) supplemented medium. 24 hours later, cells were rinsed and fresh medium containing 1β-^3H-androstenedione as aromatase substrate was added together with test compounds at concentrations ranging from 10^−12 M to 10^−5 M. After 2 hours of incubation, a fraction of the medium was transferred to homologous new 96-well microplates and a dextran-coated charcoal solution was added to each well. Following standing on ice for 10 minutes, microplates were centrifuged (1500 g; 4° C.). All steroids, including the radioactive substrate and the newly biosynthesized estrogens, were adsorbed on charcoal; only ^3H-water specifically formed during aromatisation of 1β-^3H-androstenedione, remained in the supernatant. The radioactivity in the supernatant was measured by liquid scintillation counting. In parallel, cell solubilization was performed in ethylenediamine tetraacetate solution. […]

Assay [2] concerns the target T1, human aromatase. Put plainly: Dual aromatase and steroid sulfatase activities in JEG-3 cells: aromatase readout. The settings on record: footnote c: dual aromatase and sulfatase activity, nd: not detected, read-out: Aromatase activity IC50 (nM) ± S.E.M. Type of assay: cell-based. As to the method: The JEG-3 cell line is intrinsically very rich in human estrone sulfatase and therefore is a useful biological system to evaluate new steroid sulfatase inhibitors in vitro. Assays were carried out with cells in logarithmic growth phase on 96-well microplates. 24 h before studies, cells were seeded in decomplemented fetal calf serum (dFCS) supplemented medium. The medium was removed 24 h later and cells were rinsed with PBS to eliminate any trace of dFCS. Then, ^3H-E1S was added in dFCS free medium, followed by test compounds at concentrations ranging from 10^−12 M to 10^−5 M. After 4 h of treatment, the medium was transferred into 96-deep-well microplates and centrifuged at 200×g for 10 min to pellet cells before toluene extraction. A fraction of the medium was used for toluene extraction in order to separate the conjugated substrate from non-conjugated products. The radioactivity in the toluene phase was measured by liquid scintillation counting. In parallel, after cell solubilization in a ethylenediamine tetraacetate solution, DNA content was measured by a standard fluorimetric method using the Hoechst 33258 fluorochrome. Finally, estrone sulfatase activity was expressed in pmoles of ^3H-E1+^3H-E2 formed/4 hours/mg DNA and estrone sulfatase inhibition as a percentage of control activity without inhibitor. […]

Take `CC(C)(C#N)c1cc(Cn2cncn2)cc(C(C)(C)C#N)c1` [anastrozole, reference compound]: the figures for the IC50 on human aromatase [1] and at human aromatase [2] were 6.93 ± 1.07 nM and 2.5 ± 0.6 nM, respectively.

These data come from patent publication US8476455B2, “1-N-phenyl-amino-1h-imidazole derivatives and pharmaceutical compositions containing them” (Laboratoire Theramex, priority 2003, dated 2013).
